Measurements reported in PubChem BioAssay AID1224828 (NIAID, 2016)

Screen: 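Knock-downs that increase or decrease LPS-induced p65 nuclear translocation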 (primary screen)
System: mouse RAW264.7 G9 macrophage reporter cells (GFP-p65, Tnf promoter-mCherry)
Reagent: siRNA pool against mouse genes, 100 nM
Time to read-out: 2 days siRNA transfection, then 40 min LPS before fixation
Conditions: LPS (Salmonella minnesota R595) at 10 ng/ml
Measured: 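Imaged p65 nuclear translocation ratio, normalised to the plate median, converted to robust z-scores and averaged across two replicates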
Scale: p65 translocation robust z-score: higher = more nuclear NF-kappaB p65 after LPS than the plate median; nuclear/cytoplasmic p65 ratio: higher = more nuclear NF-kappaB p65
Active means: 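Active if robust z is above 3.3 (negative regulators) or below -1.56, the Tlr4 control median (positive regulators); activity score 50 or more; control wells not called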
Meaning of the calls: active = hit (p65 shift raised or lowered); inactive = no clear change
This is a random part of about 17,000 reagents. 762 of them (4.5%) count as active. 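Active calls include both raised and lowered p65 entry, mostly lowered; wells with fewer than 50 cells lack a z-score.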 The raw values are shown without normalisation. Unmarked entries are inactive.

{"Target gene": "Map3k14 (mitogen-activated protein kinase kinase kinase 14)", "p65 translocation robust z-score": -0.92, "nuclear/cytoplasmic p65 ratio, rep 1": 1.41, "nuclear/cytoplasmic p65 ratio, rep 2": 1.36, "low cell count flag": "enough cells to score"}
{"Target gene": "U2af1l4 (U2 small nuclear RNA auxiliary factor 1-like 4)", "nuclear/cytoplasmic p65 ratio, rep 1": 1.27, "nuclear/cytoplasmic p65 ratio, rep 2": 0, "low cell count flag": "fewer than 50 cells per well; well left out of scoring"}
{"Target gene": "Lce1m (late cornified envelope 1M)", "p65 translocation robust z-score": 0.2, "nuclear/cytoplasmic p65 ratio, rep 1": 1.43, "nuclear/cytoplasmic p65 ratio, rep 2": 1.27, "low cell count flag": "enough cells to score"}
{"Target gene": "Hcn3 (hyperpolarization-activated, cyclic nucleotide-gated K+ 3)", "p65 translocation robust z-score": 0.32, "nuclear/cytoplasmic p65 ratio, rep 1": 1.46, "nuclear/cytoplasmic p65 ratio, rep 2": 1.44, "low cell count flag": "enough cells to score"}
{"Target gene": "Iqsec1 (IQ motif and Sec7 domain 1)", "p65 translocation robust z-score": "-1.58 (active)", "nuclear/cytoplasmic p65 ratio, rep 1": 1.38, "nuclear/cytoplasmic p65 ratio, rep 2": 1.28, "low cell count flag": "enough cells to score"}
{"Target gene": "Slc16a11", "p65 translocation robust z-score": "-1.96 (active)", "nuclear/cytoplasmic p65 ratio, rep 1": 1.12, "nuclear/cytoplasmic p65 ratio, rep 2": 1.05, "low cell count flag": "enough cells to score"}
{"Target gene": "Spry2 (sprouty RTK signaling antagonist 2)", "p65 translocation robust z-score": -0.54, "nuclear/cytoplasmic p65 ratio, rep 1": 1.41, "nuclear/cytoplasmic p65 ratio, rep 2": 1.54, "low cell count flag": "enough cells to score"}
{"Target gene": "Pcdhgb8 (protocadherin gamma subfamily B, 8)", "p65 translocation robust z-score": -1.26, "nuclear/cytoplasmic p65 ratio, rep 1": 1.27, "nuclear/cytoplasmic p65 ratio, rep 2": 1.14, "low cell count flag": "enough cells to score"}
{"Target gene": "Or5bw2 (olfactory receptor family 5 subfamily BW member 2)", "nuclear/cytoplasmic p65 ratio, rep 1": 1.67, "nuclear/cytoplasmic p65 ratio, rep 2": 1.48, "low cell count flag": "fewer than 50 cells per well; well left out of scoring"}
{"Target gene": "Mapk8ip2 (mitogen-activated protein kinase 8 interacting protein 2)", "p65 translocation robust z-score": -0.88, "nuclear/cytoplasmic p65 ratio, rep 1": 1.57, "nuclear/cytoplasmic p65 ratio, rep 2": 1.27, "low cell count flag": "enough cells to score"}
{"Target gene": "Trub2 (TruB pseudouridine (psi) synthase family member 2)", "p65 translocation robust z-score": 1.5, "nuclear/cytoplasmic p65 ratio, rep 1": 1.83, "nuclear/cytoplasmic p65 ratio, rep 2": 1.65, "low cell count flag": "enough cells to score"}
{"Target gene": "Gm5115 (predicted gene 5115)", "nuclear/cytoplasmic p65 ratio, rep 1": 2.01, "nuclear/cytoplasmic p65 ratio, rep 2": 1.96, "low cell count flag": "fewer than 50 cells per well; well left out of scoring"}

Part of the list above in another layout:
Slc16a11
- p65 translocation robust z-score: -1.96 (active)
- nuclear/cytoplasmic p65 ratio, rep 1: 1.12
- nuclear/cytoplasmic p65 ratio, rep 2: 1.05
- low cell count flag: enough cells to score

Spry2 (sprouty RTK signaling antagonist 2)
- p65 translocation robust z-score: -0.54
- nuclear/cytoplasmic p65 ratio, rep 1: 1.41
- nuclear/cytoplasmic p65 ratio, rep 2: 1.54
- low cell count flag: enough cells to score

Pcdhgb8 (protocadherin gamma subfamily B, 8)
- p65 translocation robust z-score: -1.26
- nuclear/cytoplasmic p65 ratio, rep 1: 1.27
- nuclear/cytoplasmic p65 ratio, rep 2: 1.14
- low cell count flag: enough cells to score

Additional records follow:
{"Target gene": "Il36rn (interleukin 36 receptor antagonist)", "p65 translocation robust z-score": -0.11, "nuclear/cytoplasmic p65 ratio, rep 1": 1.43, "nuclear/cytoplasmic p65 ratio, rep 2": 1.39, "low cell count flag": "enough cells to score"}
{"Target gene": "Rps2 (ribosomal protein S2)", "p65 translocation robust z-score": -1.07, "nuclear/cytoplasmic p65 ratio, rep 1": 1.38, "nuclear/cytoplasmic p65 ratio, rep 2": 1.41, "low cell count flag": "enough cells to score"}
{"Target gene": "Kcnip2 (Kv channel-interacting protein 2)", "p65 translocation robust z-score": -1.16, "nuclear/cytoplasmic p65 ratio, rep 1": 1.33, "nuclear/cytoplasmic p65 ratio, rep 2": 1.32, "low cell count flag": "enough cells to score"}
{"Target gene": "Cd300lb (CD300 molecule like family member B)", "p65 translocation robust z-score": 0.97, "nuclear/cytoplasmic p65 ratio, rep 1": 1.56, "nuclear/cytoplasmic p65 ratio, rep 2": 1.5, "low cell count flag": "enough cells to score"}
{"Target gene": "Laptm4a (lysosomal-associated protein transmembrane 4A)", "p65 translocation robust z-score": 2.67, "nuclear/cytoplasmic p65 ratio, rep 1": 1.84, "nuclear/cytoplasmic p65 ratio, rep 2": 1.88, "low cell count flag": "enough cells to score"}
{"Target gene": "Slc24a4", "p65 translocation robust z-score": 0.02, "nuclear/cytoplasmic p65 ratio, rep 1": 1.43, "nuclear/cytoplasmic p65 ratio, rep 2": 1.24, "low cell count flag": "enough cells to score"}
{"Target gene": "Oca2 (oculocutaneous albinism II)", "p65 translocation robust z-score": 0.71, "nuclear/cytoplasmic p65 ratio, rep 1": 1.52, "nuclear/cytoplasmic p65 ratio, rep 2": 1.53, "low cell count flag": "enough cells to score"}
{"Target gene": "Plcxd3", "p65 translocation robust z-score": -0.63, "nuclear/cytoplasmic p65 ratio, rep 1": 1.4, "nuclear/cytoplasmic p65 ratio, rep 2": 1.53, "low cell count flag": "enough cells to score"}
{"Target gene": "Or10v5 (olfactory receptor family 10 subfamily V member 5)", "p65 translocation robust z-score": 0.97, "nuclear/cytoplasmic p65 ratio, rep 1": 1.78, "nuclear/cytoplasmic p65 ratio, rep 2": 1.53, "low cell count flag": "enough cells to score"}
